PubChem BioAssay AID743121 | NCATS – 2013

- Aim: 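Genes whose silencing strengthens cell killing by camptothecin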 (primary screen)
- Cells: MDA-MB-231 cells, a human breast cancer line
- Reagents: single siRNA against human genes, 20 nM siRNA (0.8 pmol per well)
- Duration: 120 h (drug added 48 h after transfection, read 72 h later)
- Treatment: camptothecin 20 nM (about EC30) for 72 h; vehicle 0.1% DMSO in parallel plates
- Read-out: 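Cell viability by ATP luminescence (CellTiter-Glo) as % of non-targeting siRNA wells, and the log2 ratio of viability without drug over viability with camptothecin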
- Scale: log2 vehicle/camptothecin viability: higher = stronger sensitisation to camptothecin; viability with camptothecin and viability without drug: higher = more viable cells
- Rule for the call: 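Active genes have an RSA gene-level p-value below 0.001, computed from the ratios of their separate siRNAs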
In all, the deposit lists about 26,000 reagents; this is a random part of them. 167 of all reagents (0.63%) count as active. 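Calls are per gene from RSA p-values that are not deposited; an individual active-marked siRNA can sensitise only weakly.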 Entries without a mark were called inactive. The numbers tell different reagents against one gene apart.

target	reagent	log2 vehicle/camptothecin viability	viability with camptothecin (% of control)	viability without drug (% of control)
RNF135 (GeneID 84282)	1	-0.381	71.2	54.7
RNF135 (GeneID 84282)	2	-0.286	69.1	56.7
RNF135 (GeneID 84282)	3	-0.105	80.5	74.8
MMP15 (GeneID 4324)	1	0.0535	98.9	103
MMP15 (GeneID 4324)	2	-0.37	101	78.5
MMP15 (GeneID 4324)	3	0.311	45.8	56.8
MMP15 (GeneID 4324)	4	-0.334	83.7	66.4
KCNK1 (GeneID 3775)	1	0.685	30.7	49.4
KCNK1 (GeneID 3775)	2	-0.248	77.2	65
KCNK1 (GeneID 3775)	3	-0.132	84.5	77.1
KCNK1 (GeneID 3775)	4	-0.0621	78.8	75.5
TRIM27 (GeneID 5987)	1	0.516	39.1	55.9
TRIM27 (GeneID 5987)	2	-0.164	63.3	56.5
TRIM27 (GeneID 5987)	3	-0.304	59.5	48.2
TRIM27 (GeneID 5987)	4	-0.0988	64	59.7
NRXN1 (GeneID 9378)	1	-0.537	61.8	42.6
NRXN1 (GeneID 9378)	2	-0.17	57.2	50.8
NRXN1 (GeneID 9378)	3	0.475	53.8	74.8
NRXN1 (GeneID 9378)	4	-0.00571	115	115
ABCG8 (GeneID 64241)	1	-0.0209	94.4	93.1
ABCG8 (GeneID 64241)	2	-0.523	90.4	62.9
ABCG8 (GeneID 64241)	3	0.595	59.1	89.2
ABCG8 (GeneID 64241)	4	-0.0555	56	53.9
PCDH10 (GeneID 57575)	1	-0.416	47.2	35.3
PCDH10 (GeneID 57575)	2	-0.535	75.7	52.3
PCDH10 (GeneID 57575)	3	-0.139	90.7	82.4
ADCK2 (GeneID 90956)	1	0.0275	92.5	94.2
ADCK2 (GeneID 90956)	2	-0.19	121	106
ADCK2 (GeneID 90956)	3	-0.106	55.3	51.4
ADCK2 (GeneID 90956)	4	-0.671	84.6	53.1
OGFRL1 (GeneID 79627)	1	-0.0324	79.2	77.5
OGFRL1 (GeneID 79627)	2	0.325	52.3	65.5
OGFRL1 (GeneID 79627)	3	-0.147	91.5	82.6
OGFRL1 (GeneID 79627)	4	-0.42	86.8	64.8
NSD3 (GeneID 54904)	1	-0.6	53.1	35
NSD3 (GeneID 54904)	2	-0.316	81.6	65.5
NSD3 (GeneID 54904)	3	-0.296	71.2	58
NSD3 (GeneID 54904)	4	-0.0304	91.8	89.9
DPYS (GeneID 1807)	1	0.00673	20.5	20.6
DPYS (GeneID 1807)	2	-0.125	103	94.6
DPYS (GeneID 1807)	3	-0.013	122	121
DPYS (GeneID 1807)	4	-0.124	112	103
CD93 (GeneID 22918)	1	0.683	3.29	5.28
CD93 (GeneID 22918)	2	-0.11	114	106
CD93 (GeneID 22918)	3	-0.377	21.1	16.3
CD93 (GeneID 22918)	4	-0.177	53.9	47.6
TNFRSF1A (GeneID 7132)	1	-0.525	104	71.9
TNFRSF1A (GeneID 7132)	2	0.0127	79.8	80.5
TNFRSF1A (GeneID 7132)	3	-0.0764	65.4	62
SLC25A12 (GeneID 8604)	1	-0.0886	127	119
SLC25A12 (GeneID 8604)	2	0.173	64.1	72.2
SLC25A12 (GeneID 8604)	3	-0.103	104	96.8
SLC25A12 (GeneID 8604)	4	-0.119	85	78.3
NLRP11 (GeneID 204801)	1	-0.0713	104	99
NLRP11 (GeneID 204801)	2	-0.352	119	93.3
NLRP11 (GeneID 204801)	3	-0.301	75.6	61.4
NLRP11 (GeneID 204801)	4	-0.647	75.1	47.9
LIM2 (GeneID 3982)	1	-0.203	52.9	46
LIM2 (GeneID 3982)	2	-0.149	111	99.7
LIM2 (GeneID 3982)	3	0.0414	92.6	95.3
DYNC1H1 (GeneID 1778)	1	0.0417	45.6	47
DYNC1H1 (GeneID 1778)	2	-0.222	44.4	38
DYNC1H1 (GeneID 1778)	3	-0.576	113	75.7
DYNC1H1 (GeneID 1778)	4	-0.363	88.4	68.8
IRF2BPL (GeneID 64207)	1	-0.55	77.2	52.8
IRF2BPL (GeneID 64207)	2	-0.46	96	69.8
IRF2BPL (GeneID 64207)	3	-0.0497	116	112
IRF2BPL (GeneID 64207)	4	-0.177	107	94.8
